Measured values from paper PMC5516854.
Results are given in words; binding and its absence hold for the method and conditions named. In cells and extracts the contact can be indirect. Some entries that bind do so weakly or less than the wild type.

Protein sequences, listed by entry. Tags and fused reporters are not part of them. Residues count along the entry.
UniProt P13569: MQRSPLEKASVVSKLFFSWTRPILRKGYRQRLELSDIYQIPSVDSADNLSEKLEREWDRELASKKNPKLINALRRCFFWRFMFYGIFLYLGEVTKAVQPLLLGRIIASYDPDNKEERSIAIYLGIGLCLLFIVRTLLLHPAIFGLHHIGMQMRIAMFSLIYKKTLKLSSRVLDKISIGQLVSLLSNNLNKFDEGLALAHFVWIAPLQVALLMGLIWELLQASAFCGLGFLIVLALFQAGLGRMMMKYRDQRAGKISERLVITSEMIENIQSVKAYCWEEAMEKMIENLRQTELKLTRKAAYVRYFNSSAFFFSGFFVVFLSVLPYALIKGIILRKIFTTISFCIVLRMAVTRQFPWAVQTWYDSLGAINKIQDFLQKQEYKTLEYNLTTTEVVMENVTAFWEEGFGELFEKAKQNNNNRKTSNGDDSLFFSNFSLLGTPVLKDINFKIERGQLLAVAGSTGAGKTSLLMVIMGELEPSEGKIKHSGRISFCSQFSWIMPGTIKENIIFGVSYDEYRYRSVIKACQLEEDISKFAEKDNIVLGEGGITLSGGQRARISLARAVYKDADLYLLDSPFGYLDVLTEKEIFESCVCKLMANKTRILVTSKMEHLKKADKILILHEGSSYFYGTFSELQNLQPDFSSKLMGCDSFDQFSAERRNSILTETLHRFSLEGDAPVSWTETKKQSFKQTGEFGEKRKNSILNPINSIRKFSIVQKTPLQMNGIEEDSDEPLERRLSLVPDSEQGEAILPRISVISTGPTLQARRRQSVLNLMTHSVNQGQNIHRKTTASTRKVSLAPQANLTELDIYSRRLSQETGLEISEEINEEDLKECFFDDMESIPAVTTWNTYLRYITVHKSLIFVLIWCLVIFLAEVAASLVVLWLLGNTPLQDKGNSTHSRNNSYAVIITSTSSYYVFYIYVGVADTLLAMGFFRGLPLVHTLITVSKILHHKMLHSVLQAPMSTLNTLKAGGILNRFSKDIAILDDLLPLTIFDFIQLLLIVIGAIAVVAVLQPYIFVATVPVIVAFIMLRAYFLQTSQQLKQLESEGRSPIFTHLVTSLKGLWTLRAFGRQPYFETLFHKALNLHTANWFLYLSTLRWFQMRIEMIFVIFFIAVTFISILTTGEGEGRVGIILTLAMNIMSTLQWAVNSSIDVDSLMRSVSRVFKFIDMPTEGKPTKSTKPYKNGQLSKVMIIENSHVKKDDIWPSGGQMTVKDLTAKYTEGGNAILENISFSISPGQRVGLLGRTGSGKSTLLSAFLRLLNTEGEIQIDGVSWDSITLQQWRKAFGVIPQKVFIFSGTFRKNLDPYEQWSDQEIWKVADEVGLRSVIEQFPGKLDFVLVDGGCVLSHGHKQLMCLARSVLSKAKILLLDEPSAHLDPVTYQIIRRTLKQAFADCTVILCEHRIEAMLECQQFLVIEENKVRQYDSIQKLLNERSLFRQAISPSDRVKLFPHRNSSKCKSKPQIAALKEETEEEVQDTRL
UniProt P34925, residues 26-607: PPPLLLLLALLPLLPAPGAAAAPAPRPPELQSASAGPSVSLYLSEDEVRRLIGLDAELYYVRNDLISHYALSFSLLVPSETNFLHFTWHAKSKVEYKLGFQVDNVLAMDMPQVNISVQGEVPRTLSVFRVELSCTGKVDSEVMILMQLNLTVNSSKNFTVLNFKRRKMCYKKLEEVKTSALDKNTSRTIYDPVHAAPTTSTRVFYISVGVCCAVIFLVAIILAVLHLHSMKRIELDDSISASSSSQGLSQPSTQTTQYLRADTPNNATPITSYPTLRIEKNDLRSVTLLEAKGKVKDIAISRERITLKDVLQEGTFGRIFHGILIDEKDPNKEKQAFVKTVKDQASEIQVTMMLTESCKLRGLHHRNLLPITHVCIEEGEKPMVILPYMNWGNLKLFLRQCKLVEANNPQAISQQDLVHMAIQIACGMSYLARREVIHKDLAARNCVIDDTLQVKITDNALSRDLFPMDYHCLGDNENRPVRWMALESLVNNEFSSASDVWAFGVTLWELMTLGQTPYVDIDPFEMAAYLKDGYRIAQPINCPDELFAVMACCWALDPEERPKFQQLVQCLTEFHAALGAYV

Molecular target: cystic fibrosis transmembrane conductance regulator (CFTR) (human (endogenous in HEK293)) (UniProt P13569)
Experiment: co-IP; endogenous CFTR as bait, endogenous Ryk and Dab2 detected; HEK293 cells, No Wnt control or transiently expressing Wnt 1, 2, 2b2, 3 or 3a (interactions qualitatively diminished with these Wnts)

binding	Molecule
binds	receptor-like tyrosine kinase (Ryk) (from UniProt P34925 26-607)
binds	Dab, mitogen-responsive phosphoprotein, homolog 2 (Dab2) (protein, UniProt P98082 1-770) MSNEVETSATNGQPDQQAAPKAPSKKEKKKGPEKTDEYLLARFKGDGVKYKAKLIGIDDVPDARGDKMSQDSMMKLKGMAAAGRSQGQHKQRIWVNISLSGIKIIDEKTGVIEHEHPVNKISFIARDVTDNRAFGYVCGGEGQHQFFAIKTGQQAEPLVVDLKDLFQVIYNVKKKEEEKKKIEEASKAVENGSEALMILDDQTNKLKSGVDQMDLFGDMSTPPDLNSPTESKDILLVDLNSEIDTNQNSLRENPFLTNGITSCSLPRPTPQASFLPENAFSANLNFFPTPNPDPFRDDPFTQPDQSTPSSFDSLKSPDQKKENSSSSSTPLSNGPLNGDVDYFGQQFDQISNRTGKQEAQAGPWPFSSSQTQPAVRTQNGVSEREQNGFSVKSSPNPFVGSPPKGLSIQNGVKQDLESSVQSSPHDSIAIIPPPQSTKPGRGRRTAKSSANDLLASDIFAPPVSEPSGQASPTGQPTALQPNPLDLFKTSAPAPVGPLVGLGGVTVTLPQAGPWNTASLVFNQSPSMAPGAMMGGQPSGFSQPVIFGTSPAVSGWNQPSPFAASTPPPVPVVWGPSASVAPNAWSTTSPLGNPFQSNIFPAPAVSTQPPSMHSSLLVTPPQPPPRAGPPKDISSDAFTALDPLGDKEIKDVKEMFKDFQLRQPPAVPARKGEQTSSGTLSAFASYFNSKVGIPQENADHDDFDANQLLNKINEPPKPAPRQVSLPVTKSTDNAFENPFFKDSFGSSQASVASSQPVSSEMYRDPFGNPFA
